Patent US20220235144A1
Results are given in words; binding and its absence hold for the method and conditions named. Binding calls can cover weak binding; strength is not graded here.

Assays:
[1] = target: cSIRPαV1D1 with histidine tag (cynomolgus monkey (Macaca fascicularis)); test: SPR (Biacore), summary of Tables 13 and 14
[2] = target: cSIRPαV2D1 with histidine tag (cynomolgus monkey (Macaca fascicularis)); test: SPR (Biacore), summary of Tables 13 and 14

Binder | binding [1] | binding [2]
Ab1_G4 (antibody, human IgG4 S228P, kappa, V domains shown) VH: EVQLVESGGGLVKPGGSLRLSCAASGFTFSSYVMSWVRQTPGKGLEWVATISSGGTYTYYPSSVKGRFTLSRDNAKNSLYLQMNSLRAEDTAVYYCASSLTGSSFDYWGQGTTVTVSS VL: DIVLTQSPASLAVSLGERATISCRASESVDLYGTSFMHWYQQKPGQPPKLLIYRASNLESGVPDRFSGSGSRTDFTLTINPLQAEDVATYYCHQSSDELPWTFGGGTKVEIKR | binds | binds
Ab2_G4 (antibody, human IgG4 S228P, kappa, V domains shown) VH: EVQLVESGGGLVKPGGSLRLSCAASGFTFSSYVMSWVRQTPGKGLEWVATISSGGTYTYYPDSVKGRFTLSRDNAKNSLYLQMNSLRAEDTAVYYCASSVDGSAFDYWGQGTTVTVSS VL: DIVITQSPASLAVSLGERATISCRASESVDSYGMSFMHWYQQKPGQPPKLLIYRASNLESGVPDRFSGSGSRTDFTLTINPLQAEDVATYYCHQSSENLPWTFGGGTKVEIKR | binds | binds
Ab8_G4 (antibody, human IgG4 S228P, kappa, V domains shown) VH: EVQLVESGGGLVKPGGSLRLSCAASGFTFSSYVMSWVRQTPGKGLEWVATISSGGTYTYYPESVKGRFTLSRDNAKNSLYLQMNSLRAEDTAVYYCASQLTGSEFDYWGQGTTVTVSS VL: DIVMTQSPASLAVSLGERATISCRASESVDSYGNSFMHWYQQKPGQPPKLLIYRASNLESGVPDRFSGSGSRTDFTLTINPLQAEDVATYYCHQSADLPWTFGGGTKVEIKR | binds | binds
Ab9_G4 (antibody, human IgG4 S228P, kappa, V domains shown) VH: EVQLVESGGGLVKPGGSLRLSCAASGFTFSSYVMSWVRQTPGKGLEWVATISSGGTYTYYPNSVKGRFTLSRDNAKNSLYLQMNSLRAEDTAVYYCVSSMTGSSFDYWGQGTTVTVSS VL: DIVITQSPASLAVSLGERATISCRASESVDSYGNSFMHWYQQKPGQPPKLLIYRASNLESGVPDRFSGSGSRTDFTLTINPLQAEDVATYYCHQSSEQLPWTFGGGTKVEIKR | binds | binds
Ab11_G4 (antibody, human IgG4 S228P, kappa, V domains shown) VH: EVQLVESGGGLVKPGGSLRLSCAASGFTFSSYVMSWVRQTPGKGLEWVATISSGGTYTYYPDSVKGRFTLSRDNAKNSLYLQMNSLRAEDTAVYYCASQLTGSEFDYWGQGTTVTVSS VL: DIVITQSPASLAVSLGERATISCRASESVDSYGNSFMHWYQQKPGQPPKLLIYRASNLESGVPDRFSGSGSRTDFTLTINPLQAEDVATYYCHQSGDLPWTFGGGTKVEIKR | binds | binds
